From patent US20250057859A1, “CANNABICHROMENEQUINONE AND ANALOGUES THEREOF, AND METHOD OF USING COMPOSITIONS THEREOF AS ANTI-INFLAMMATORY AGENTS” (Juva Life, Inc., priority 2021, published 2025)

Test system: PANC-1 pancreatic carcinoma cell line
Assay: PANC-1 cell line toxicity (Cell titer Glo viability)
Conditions: Homo sapiens, PANC-1, 72 h, read-out: IC50 cell viability
Experimental: The half maximal inhibition concentration (IC50) for each compound was determined by harvesting cells during the logarithmic growth period and then counting cell number using hemocytometer. The cell concentrations were adjusted to 5×10^4 cells/mL with respective culture medium. 30 μL of cell suspensions were added to three 384-well plates with the final cell density of 1.5×10^3 cells/well. Then, using a Biomek FX, test articles were serially diluted (10 mM top, 3× dilution intervals) along with a reference inhibitor (1 mM top, 3× dilution intervals) in acoustic grade Labcyte plate. Then, using an acoustic dispenser (Labcyte550), compounds were added as serially diluted to plate with cells: 90 nL of serially diluted compounds per well. 90 nL DMSO is added to control wells. Test plates were incubated for 72 h in the humidified incubator at 37° C. with 5% CO2. 25 μL of reconstituted Cell titer Glo reagent was added to each well. Each test plate was then incubated for 20 min at room temperature. Luminescence was then recorded using Synergy Neo2Multi-mode Reader.
In order to calculate intersect IC50, a dose-response curve was fitted using nonlinear regression model with a sigmoidal dose response.
The formula for calculating surviving rate is shown below, and the intersect IC50 was calculated according to the dose-response curve generated by the software: […]

## CN[C@@H]1C[C@H]2O[C@@](C)([C@@H]1OC)n1c3ccccc3c3c4c(c5c6ccccc6n2c5c31)C(=O)NC4 [Staurosporine, staurosporine, reference compound]
  IC50: ~80 nM
